The list shows a part of the results.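 How the source made its calls: active = dose-dependent thermal stabilisation significant by F-test of dose-response against flat model at 10% FDR; inactive = not significant.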
Each target was assayed with Nc1nc2c(ncn2[C@@H]2O[C@H](COP(=O)(O)OP(=O)(O)OP(=O)(O)O)[C@@H](O)[C@H]2O)c(=O)[nH]1 (assay: dose-dependent thermal stabilisation call (2D-TPP, DLPTP, 10% FDR) (binary (1 = stabilised)); higher = stabilised by the compound). Settings: system: Jurkat gel-filtered lysate; concentration range 1-500 µM.
Experimental: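 2D thermal proteome profiling in gel-filtered Jurkat E6.1 lysate (2 mg/ml) treated with NaGTP (0, 1, 10, 100, 500 uM) for 10 min at room temperature, then heated 3 min at one of 12 temperatures (42-63.9 C). Soluble protein was quantified by TMT10 MS. The value is the DLPTP call of the paper: dose-dependent thermal stabilisation over all temperatures at 10% FDR (F-test of a dose-response against a flat model); one experiment, one call per tested protein.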

The chains behind the UniProt entries cited, without tags or fusion partners. Where a name states a change or a piece, a line headed by the entry shows the natural chain unless it says otherwise.
UniProt Q9NY12: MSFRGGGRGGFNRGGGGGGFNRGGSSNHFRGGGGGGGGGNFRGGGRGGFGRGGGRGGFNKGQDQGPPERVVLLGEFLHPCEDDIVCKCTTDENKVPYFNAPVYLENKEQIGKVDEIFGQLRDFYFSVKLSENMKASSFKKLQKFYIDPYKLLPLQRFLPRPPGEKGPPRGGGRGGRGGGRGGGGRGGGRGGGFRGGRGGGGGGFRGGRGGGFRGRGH
UniProt P14317: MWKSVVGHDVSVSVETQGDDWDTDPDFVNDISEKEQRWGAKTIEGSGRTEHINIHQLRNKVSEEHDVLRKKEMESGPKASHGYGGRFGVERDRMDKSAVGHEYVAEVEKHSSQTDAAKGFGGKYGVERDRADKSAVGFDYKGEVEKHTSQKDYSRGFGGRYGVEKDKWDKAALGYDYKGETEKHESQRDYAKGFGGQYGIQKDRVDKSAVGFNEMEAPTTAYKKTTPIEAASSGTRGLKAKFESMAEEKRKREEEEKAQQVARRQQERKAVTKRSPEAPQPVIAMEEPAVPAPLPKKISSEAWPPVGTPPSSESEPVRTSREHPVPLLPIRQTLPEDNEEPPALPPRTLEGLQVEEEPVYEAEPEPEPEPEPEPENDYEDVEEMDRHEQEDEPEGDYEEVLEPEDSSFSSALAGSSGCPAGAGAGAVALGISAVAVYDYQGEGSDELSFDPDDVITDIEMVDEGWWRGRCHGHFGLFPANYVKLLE
UniProt Q8TAK5: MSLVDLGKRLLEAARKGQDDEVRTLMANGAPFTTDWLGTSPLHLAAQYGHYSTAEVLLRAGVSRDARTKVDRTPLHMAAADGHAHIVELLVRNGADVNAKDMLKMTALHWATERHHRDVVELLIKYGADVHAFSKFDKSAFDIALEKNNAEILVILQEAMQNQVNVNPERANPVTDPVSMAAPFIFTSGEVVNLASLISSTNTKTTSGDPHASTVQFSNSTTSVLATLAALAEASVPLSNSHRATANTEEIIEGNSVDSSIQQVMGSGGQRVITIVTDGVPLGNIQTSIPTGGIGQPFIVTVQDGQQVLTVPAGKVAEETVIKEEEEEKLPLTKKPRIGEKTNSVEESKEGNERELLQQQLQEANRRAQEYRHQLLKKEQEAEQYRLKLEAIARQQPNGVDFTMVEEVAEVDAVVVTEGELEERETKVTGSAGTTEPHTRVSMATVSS
UniProt P60983, whole entry: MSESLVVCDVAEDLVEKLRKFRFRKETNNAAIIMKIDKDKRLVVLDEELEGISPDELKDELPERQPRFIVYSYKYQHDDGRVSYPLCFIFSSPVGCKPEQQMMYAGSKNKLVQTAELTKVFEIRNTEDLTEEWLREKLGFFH
UniProt P60520, whole entry: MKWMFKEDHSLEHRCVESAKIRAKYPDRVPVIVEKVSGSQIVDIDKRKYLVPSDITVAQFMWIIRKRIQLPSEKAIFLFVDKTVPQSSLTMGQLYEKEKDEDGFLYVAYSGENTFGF
UniProt Q14789: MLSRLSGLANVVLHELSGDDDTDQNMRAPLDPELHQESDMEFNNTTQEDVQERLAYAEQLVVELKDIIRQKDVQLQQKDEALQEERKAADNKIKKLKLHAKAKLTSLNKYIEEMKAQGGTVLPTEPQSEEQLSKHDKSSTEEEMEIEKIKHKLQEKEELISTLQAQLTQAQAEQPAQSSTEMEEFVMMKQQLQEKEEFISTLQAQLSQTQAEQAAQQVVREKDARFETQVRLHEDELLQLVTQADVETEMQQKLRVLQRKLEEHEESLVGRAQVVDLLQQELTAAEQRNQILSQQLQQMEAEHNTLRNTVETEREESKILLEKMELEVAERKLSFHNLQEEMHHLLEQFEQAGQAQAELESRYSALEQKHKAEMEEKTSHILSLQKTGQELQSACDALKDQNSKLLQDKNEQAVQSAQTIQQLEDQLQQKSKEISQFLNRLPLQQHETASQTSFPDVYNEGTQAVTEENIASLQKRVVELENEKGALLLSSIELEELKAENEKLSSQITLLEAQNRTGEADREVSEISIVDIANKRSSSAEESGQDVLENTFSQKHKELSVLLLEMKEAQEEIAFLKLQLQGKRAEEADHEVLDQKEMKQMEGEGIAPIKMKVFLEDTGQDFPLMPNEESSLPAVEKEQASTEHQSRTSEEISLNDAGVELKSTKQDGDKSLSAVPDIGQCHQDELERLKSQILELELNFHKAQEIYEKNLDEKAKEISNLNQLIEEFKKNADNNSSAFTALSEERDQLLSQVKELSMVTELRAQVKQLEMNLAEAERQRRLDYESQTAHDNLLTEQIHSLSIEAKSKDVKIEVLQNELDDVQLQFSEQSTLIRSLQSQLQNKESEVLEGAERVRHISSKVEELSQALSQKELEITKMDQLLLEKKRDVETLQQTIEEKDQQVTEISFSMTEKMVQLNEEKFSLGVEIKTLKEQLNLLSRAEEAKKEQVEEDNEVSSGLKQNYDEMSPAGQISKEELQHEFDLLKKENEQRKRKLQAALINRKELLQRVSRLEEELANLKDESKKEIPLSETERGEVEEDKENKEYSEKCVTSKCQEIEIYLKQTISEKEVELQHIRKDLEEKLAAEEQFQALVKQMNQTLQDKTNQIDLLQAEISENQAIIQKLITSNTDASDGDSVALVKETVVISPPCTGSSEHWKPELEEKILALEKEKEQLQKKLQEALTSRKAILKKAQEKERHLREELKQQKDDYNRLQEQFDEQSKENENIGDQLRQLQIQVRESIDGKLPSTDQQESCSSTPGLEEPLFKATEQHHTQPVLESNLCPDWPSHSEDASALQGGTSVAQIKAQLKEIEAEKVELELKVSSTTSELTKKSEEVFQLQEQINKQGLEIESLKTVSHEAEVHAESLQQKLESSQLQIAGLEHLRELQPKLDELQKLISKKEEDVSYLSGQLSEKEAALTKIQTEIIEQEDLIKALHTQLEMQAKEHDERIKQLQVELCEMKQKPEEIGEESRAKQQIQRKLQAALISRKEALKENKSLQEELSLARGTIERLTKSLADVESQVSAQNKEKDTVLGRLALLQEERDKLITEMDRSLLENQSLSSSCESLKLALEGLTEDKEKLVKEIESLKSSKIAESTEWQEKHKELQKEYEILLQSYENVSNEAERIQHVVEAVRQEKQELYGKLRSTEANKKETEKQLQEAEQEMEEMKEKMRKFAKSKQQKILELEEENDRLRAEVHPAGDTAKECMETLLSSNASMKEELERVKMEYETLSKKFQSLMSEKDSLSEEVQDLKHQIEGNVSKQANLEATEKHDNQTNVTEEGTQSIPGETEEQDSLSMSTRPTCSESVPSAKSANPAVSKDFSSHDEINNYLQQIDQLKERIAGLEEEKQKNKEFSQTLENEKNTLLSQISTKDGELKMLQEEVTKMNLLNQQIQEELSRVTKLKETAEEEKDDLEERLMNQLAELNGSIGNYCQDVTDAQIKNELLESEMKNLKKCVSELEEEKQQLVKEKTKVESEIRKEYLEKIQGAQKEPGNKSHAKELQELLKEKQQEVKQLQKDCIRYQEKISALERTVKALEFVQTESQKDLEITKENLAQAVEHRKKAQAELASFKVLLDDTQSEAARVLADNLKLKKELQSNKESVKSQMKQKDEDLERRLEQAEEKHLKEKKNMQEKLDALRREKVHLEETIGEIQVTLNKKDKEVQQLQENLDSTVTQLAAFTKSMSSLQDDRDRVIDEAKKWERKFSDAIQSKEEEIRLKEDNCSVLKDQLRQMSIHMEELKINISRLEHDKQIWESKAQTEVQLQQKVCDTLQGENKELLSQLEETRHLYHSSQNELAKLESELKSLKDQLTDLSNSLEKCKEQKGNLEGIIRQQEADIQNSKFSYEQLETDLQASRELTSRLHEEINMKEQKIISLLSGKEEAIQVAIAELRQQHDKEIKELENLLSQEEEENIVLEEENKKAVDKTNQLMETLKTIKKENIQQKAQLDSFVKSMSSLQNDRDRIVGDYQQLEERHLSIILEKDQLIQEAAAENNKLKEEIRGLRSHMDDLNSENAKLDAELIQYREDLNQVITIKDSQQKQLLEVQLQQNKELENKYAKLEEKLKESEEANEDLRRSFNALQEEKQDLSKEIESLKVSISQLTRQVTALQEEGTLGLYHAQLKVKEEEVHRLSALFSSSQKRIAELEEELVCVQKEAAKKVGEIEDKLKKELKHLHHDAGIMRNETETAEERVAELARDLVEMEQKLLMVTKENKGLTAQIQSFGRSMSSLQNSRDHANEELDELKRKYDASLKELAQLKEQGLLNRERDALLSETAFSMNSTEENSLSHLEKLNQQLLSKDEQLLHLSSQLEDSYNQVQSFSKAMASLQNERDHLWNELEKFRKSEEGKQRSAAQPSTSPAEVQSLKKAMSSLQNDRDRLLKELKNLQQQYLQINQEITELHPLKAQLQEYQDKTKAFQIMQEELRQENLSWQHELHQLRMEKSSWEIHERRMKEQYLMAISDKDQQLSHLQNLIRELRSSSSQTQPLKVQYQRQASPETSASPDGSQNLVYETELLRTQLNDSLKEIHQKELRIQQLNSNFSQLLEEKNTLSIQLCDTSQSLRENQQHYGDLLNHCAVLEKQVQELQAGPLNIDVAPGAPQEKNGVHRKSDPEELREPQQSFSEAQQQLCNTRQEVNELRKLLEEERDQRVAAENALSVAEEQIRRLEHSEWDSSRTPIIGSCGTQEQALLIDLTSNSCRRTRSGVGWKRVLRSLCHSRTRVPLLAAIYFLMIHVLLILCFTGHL
UniProt O75223: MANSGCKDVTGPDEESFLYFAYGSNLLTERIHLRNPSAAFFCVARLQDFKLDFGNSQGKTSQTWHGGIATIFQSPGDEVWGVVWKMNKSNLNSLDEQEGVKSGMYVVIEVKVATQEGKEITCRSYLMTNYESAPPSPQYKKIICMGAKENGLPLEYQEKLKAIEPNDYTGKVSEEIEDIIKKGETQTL
UniProt Q9HAV7: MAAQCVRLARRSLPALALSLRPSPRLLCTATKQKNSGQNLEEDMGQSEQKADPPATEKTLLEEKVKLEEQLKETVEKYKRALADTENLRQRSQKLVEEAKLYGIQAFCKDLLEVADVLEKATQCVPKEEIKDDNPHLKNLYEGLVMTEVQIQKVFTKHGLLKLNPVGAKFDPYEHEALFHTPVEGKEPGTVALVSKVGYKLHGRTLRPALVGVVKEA
UniProt Q9HC44: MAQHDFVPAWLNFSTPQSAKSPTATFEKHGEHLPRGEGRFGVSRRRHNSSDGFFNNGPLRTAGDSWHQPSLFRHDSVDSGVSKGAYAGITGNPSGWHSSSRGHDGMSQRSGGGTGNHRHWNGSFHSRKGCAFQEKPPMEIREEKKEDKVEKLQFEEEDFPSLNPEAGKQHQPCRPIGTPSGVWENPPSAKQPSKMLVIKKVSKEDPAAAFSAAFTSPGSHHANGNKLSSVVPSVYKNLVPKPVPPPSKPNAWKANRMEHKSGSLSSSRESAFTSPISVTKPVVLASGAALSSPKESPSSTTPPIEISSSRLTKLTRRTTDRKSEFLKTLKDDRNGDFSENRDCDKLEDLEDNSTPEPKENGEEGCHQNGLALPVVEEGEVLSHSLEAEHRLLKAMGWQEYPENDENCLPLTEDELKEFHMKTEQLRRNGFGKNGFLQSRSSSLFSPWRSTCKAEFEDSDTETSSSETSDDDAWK
UniProt Q99729: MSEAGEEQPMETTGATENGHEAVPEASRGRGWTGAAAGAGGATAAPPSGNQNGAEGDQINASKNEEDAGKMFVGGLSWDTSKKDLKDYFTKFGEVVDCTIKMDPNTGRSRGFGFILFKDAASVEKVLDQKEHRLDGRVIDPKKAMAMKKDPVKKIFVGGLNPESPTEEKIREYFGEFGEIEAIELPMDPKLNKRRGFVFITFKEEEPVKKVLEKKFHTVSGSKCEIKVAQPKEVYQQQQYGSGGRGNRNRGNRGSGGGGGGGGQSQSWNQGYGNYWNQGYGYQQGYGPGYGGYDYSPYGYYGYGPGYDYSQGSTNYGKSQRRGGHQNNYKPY
UniProt P49773: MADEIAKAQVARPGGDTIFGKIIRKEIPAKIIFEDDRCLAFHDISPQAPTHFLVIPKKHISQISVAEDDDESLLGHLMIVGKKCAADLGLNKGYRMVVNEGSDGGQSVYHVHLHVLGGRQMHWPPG
UniProt Q10471: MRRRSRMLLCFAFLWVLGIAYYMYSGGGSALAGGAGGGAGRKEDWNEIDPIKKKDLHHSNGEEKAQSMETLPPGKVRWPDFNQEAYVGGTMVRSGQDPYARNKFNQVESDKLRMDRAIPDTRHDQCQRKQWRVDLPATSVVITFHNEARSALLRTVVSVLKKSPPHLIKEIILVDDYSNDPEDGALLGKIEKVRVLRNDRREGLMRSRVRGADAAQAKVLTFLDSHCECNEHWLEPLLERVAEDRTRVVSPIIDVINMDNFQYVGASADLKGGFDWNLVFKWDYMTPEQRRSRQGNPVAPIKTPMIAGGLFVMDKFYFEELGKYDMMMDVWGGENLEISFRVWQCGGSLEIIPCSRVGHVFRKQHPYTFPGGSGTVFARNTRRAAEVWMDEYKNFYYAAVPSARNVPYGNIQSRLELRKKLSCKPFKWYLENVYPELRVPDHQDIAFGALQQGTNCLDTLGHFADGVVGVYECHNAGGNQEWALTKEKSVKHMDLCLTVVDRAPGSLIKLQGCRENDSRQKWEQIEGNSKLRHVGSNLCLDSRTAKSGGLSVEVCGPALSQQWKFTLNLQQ

Row | Target | dose-dependent thermal stabilisation call
1 | GSTO1 (UniProt P78417) | active: 1
2 | GAR1 (UniProt Q9NY12) | inactive: 0
3 | GCAT (UniProt O75600) | inactive: 0
4 | GIPC1 (UniProt O14908) | inactive: 0
5 | HCLS1 (UniProt P14317) | inactive: 0
6 | GABPB2 (UniProt Q8TAK5) | inactive: 0
7 | GAN (UniProt Q9H2C0) | inactive: 0
8 | GATAD2B (UniProt Q8WXI9) | inactive: 0
9 | GPATCH11 (UniProt Q8N954) | inactive: 0
10 | H2AFZ (UniProt P0C0S5) | inactive: 0
11 | GMFB (UniProt P60983) | inactive: 0
12 | H6PD (UniProt O95479) | inactive: 0
13 | HNRNPC (UniProt P07910) | inactive: 0
14 | GBP1 (UniProt P32455) | active: 1
15 | GINS4 (UniProt Q9BRT9) | inactive: 0
16 | HIST1H2BJ (UniProt P06899) | inactive: 0
17 | GABARAPL2 (UniProt P60520) | inactive: 0
18 | GIMAP4 (UniProt Q9NUV9) | active: 1
19 | GEMIN7 (UniProt Q9H840) | inactive: 0
20 | GOLGB1 (UniProt Q14789) | inactive: 0

Reprinted, nos. 15–16
Row | Target | dose-dependent thermal stabilisation call
15 | GINS4 (UniProt Q9BRT9) | inactive: 0
16 | HIST1H2BJ (UniProt P06899) | inactive: 0

Next results

Row | Target | dose-dependent thermal stabilisation call
21 | GOSR2 (UniProt O14653) | inactive: 0
22 | HDAC6 (UniProt Q9UBN7) | inactive: 0
23 | HNRNPA1 (UniProt P09651) | inactive: 0
24 | GGCT (UniProt O75223) | inactive: 0
25 | GRPEL1 (UniProt Q9HAV7) | inactive: 0
26 | GPX4 (UniProt P36969) | inactive: 0
27 | GPRIN1 (UniProt Q7Z2K8) | inactive: 0
28 | HGH1 (UniProt Q9BTY7) | inactive: 0
29 | GPBP1L1 (UniProt Q9HC44) | inactive: 0
30 | HNRNPAB (UniProt Q99729) | inactive: 0
31 | HADHA (UniProt P40939) | inactive: 0
32 | HACL1 (UniProt Q9UJ83) | inactive: 0
33 | GCFC2 (UniProt P16383) | inactive: 0
34 | GALK1 (UniProt P51570) | active: 1
35 | HIST1H1D (UniProt P16402) | inactive: 0
36 | HINT1 (UniProt P49773) | inactive: 0
37 | GALNT2 (UniProt Q10471) | inactive: 0
38 | HMGB2 (UniProt P26583) | inactive: 0
39 | HIP1 (UniProt O00291) | inactive: 0
40 | HMGN5 (UniProt P82970) | inactive: 0

Source: the supplement of paper PMC7666118
